About 210 (0.4%) of roughly 52,000 sequences were called active.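 The calls were made as follows: active = gene whose silencing raises cell survival under the drug, median off-target-corrected z-score across its silencing RNAs 2 or more; inactive = the rest.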 The list shows a part of the results.
assay: Resistance to Poly (ADP-Ribose) Polymerase inhibitor: Gene Identification via Genome-wide siRNA Screen; details: mouse BRCA2 R2336H ES cells, olaparib, CellTiter-Glo viability; active compounds read high
Summary of the method: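 Genome-wide siRNA screen (3 siRNAs/gene, 20 nM) in mouse ES cells carrying hypomorphic BRCA2 R2336H; olaparib 500 nM added 48 h post-transfection, CellTiter-Glo viability 72 h later. Normalized to plate-median negative control; MAD z-scores, gene median, seed-adjusted.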

| Sequence | z-score |
| --- | --- |
| GCACAUUCCUAAGACAAUCTT against Spag4l | inactive: 1.26 |
| GGGAUACGUCAUCUGUUAATT against Ilf3 | inactive: 0.836 |
| GCUGAACGUGAGAUUGUGCTT against Acta1 | inactive: -0.251 |
| GCAAGUCCUACAAUACAACTT against Tk1 | inactive: -0.837 |
| GGAAGUGAUACUGUCUAUATT against Rfx3 | inactive: -0.777 |
| GCAUCAUUGUCAAUCAUAUTT against Olfr578 | inactive: 0.585 |
| GCAAACGCAGUACUAUGGUTT against Pak2 | inactive: 0.255 |
| GAACCCUCAUGAGGGUUACTT against C1ql1 | inactive: 0.0584 |
| GGGAUUGGUUAUUUUACAUTT against 4632406N01Rik | inactive: -0.349 |
| GGAAAAGGAAAAAUAACCUTT against Ptma | inactive: -1.05 |
| CGCUAGAAGGAUUAUACCUTT against Vps13c | inactive: -0.25 |
| GGCGAGUUUGUUCUCUUAGTT against Olfr11 | inactive: -0.705 |
| CCAGGAACCUAUUGAAUCUTT against D830019K17Rik | inactive: 2.67 |
| AGUUCGACUUUGACGACGGTT against Jph4 | inactive: 1.24 |
| GGGCCUAAAGGACUUGGCUTT against Dlgh4 | inactive: -0.142 |
| GGAGACACGGCCCUAAUCATT against Ddah2 | inactive: 2.44 |
| GGAUUUCGUGUGGAUGAAATT against D14Ertd500e | inactive: -1.16 |
| GGUGGGUGACACUUAAACATT against V1rg2 | inactive: -2.31 |
| GCAAACCAACAGAUGCUGCTT against 4930500C15Rik | inactive: -0.297 |
| GGGCCAAGUUCCGAAAGAATT against Otx3 | inactive: -2.29 |
| GGAGAAGGAUAGAGAUGGUTT against Phf5a | inactive: -2.98 |
| CCUACCAAAACGACUAUAUTT against Pnma3 | inactive: 0.795 |
| CGGCAUCUUUUUGAAUCAATT against 0610010D24Rik | inactive: 0.859 |
| GCAUCUCACGCUACAGAUUTT against Dock2 | inactive: -1.15 |
| GGAUAAACCUAUGAAUGAATT against B230358A15Rik | inactive: -0.539 |
| GCUACAUCACAUGCAGUUCTT against 6430517E21Rik | inactive: -1.06 |

| Sequence | z-score |
| --- | --- |
| CCAAAAGGUUCGAGUUUCATT against Padi4 | inactive: -0.284 |
| CGAUCCAUGUUGUAAGCGCTT against 1700056P18Rik | inactive: -0.0835 |
| GCUGGUAUUUAAUAGAGGATT against 2610020O08Rik | inactive: 0.603 |
| GGUUUACUUCCCAUACCUGTT against Pold1 | inactive: -1.36 |
| CGAAGCUGUUCAUAAGUAUTT against Gsr | inactive: 1.26 |
| GGUAUAGUUAAAGUGAGAGTT against Sp8 | inactive: -1.1 |
| GCACAUGCCAACUCAUUCUTT against 1200007D18Rik | inactive: 1.15 |
| GCCCGUGUAGUGCUGGAUUTT against Tbca | inactive: -0.0124 |
| GGGAACACCUACCCUGUGUTT against Plpcd | inactive: -0.875 |
| GGGCAUGUAUCCGAUUAGATT against 1200015A19Rik | inactive: 1.36 |
| GGUGCUAUUCAUCUGCACGTT against Prss15 | inactive: 2.13 |
| GGAAAAGACAAGGAAUAUGTT against Ube2r2 | inactive: 0.291 |
| UGCUGACGACAUCCCAUGCTT against Olfr255 | inactive: 1.3 |
| GGAGAUUUACACUUUACUATT against Spata4 | inactive: 0.469 |
| CCUAAAAUACUUUACCGGGTT against Bckdhb | inactive: 2.25 |
| GGUGACCAAGCAGAUAACATT against Prcc | inactive: 0.25 |
| CGCAAUUUGACAUUUGGAUTT against Plekhh2 | inactive: 0.683 |
| CCAACGUACCAGCAAUAGUTT against Rab8a | inactive: 0.312 |
| GGUGGCAAACUUCAUUUUATT against Sfrs2 | inactive: -1.87 |
| GGGUAAAACAAGAAUAUCATT against 2610027L16Rik | inactive: 0.127 |
| GGCAUUUGUGCUCUUCGGATT against Sctr | inactive: -0.165 |
| GGACAUGAUGAUGAUGAUGTT against Colm | inactive: -1.84 |
| CCAUUAUCAAGGAACAAGCTT against Itgb4 | inactive: 1.17 |
| GGAAGUCAAGGAAGCCUUCTT against Olfr368 | inactive: -1.18 |
| CGAGCCUAGAAAGAGUUGATT against B430119L13Rik | inactive: 1.2 |
| GGAUUGAAGAAGAAAAGUCTT against Creb1 | inactive: -1.52 |

| Sequence | z-score |
| --- | --- |
| GGGACGUGAAGAUGAAGAATT against Fbp1 | inactive: -0.899 |
| GGCUCAGACCCUGUACUAATT against 15-Sep | inactive: -1.46 |
| CCUAAAUGGAUAGGGUUGCTT against 1700001C19Rik | inactive: -0.224 |
| GGAAGAGUGUAUCAUUCUUTT against Dusp9 | inactive: 1.33 |
| CCUACUGACGACUCUUAUATT against V2r16 | inactive: 0.309 |
| GCGAAAGAAAGUUUUGCUGTT against Ccm1 | inactive: 0.471 |
| GGUCACCUAAGUGCUUACGTT against Ceacam2 | inactive: -0.283 |
| GCUAGUUAAUGGUAACAUATT against Sult1d1 | inactive: -0.207 |
| CCCUAACUUGGAUAAGCUGTT against Nqo3a2 | inactive: 0.655 |
| GGAUCCUCGGACUAAAAGUTT against Pnma1 | inactive: -0.0925 |
| GGAUUGUGCAGAGCAUCUGTT against Card14 | inactive: -1.28 |
| CGGAAUUUUGCCUUCAUGATT against 2010002H18Rik | inactive: -0.773 |
| GGACAAAUGACUGGUACCCTT against Gorasp2 | inactive: 0.358 |
| CCUGUUCUGUUAUCAACGGTT against Plxdc1 | inactive: 1.82 |
| GAUGUACGAUCUGGUGGUGTT against Exosc6 | inactive: 0.00764 |
| GGAAAGCUCACUUUCUUUUTT against Lmln | inactive: -1.02 |
| GCGACUUAGAAAAGAACAGTT against AI413631 | inactive: -0.873 |
| GGAGCCAUGCUAAGAGCAUTT against Dbil5 | inactive: -0.239 |
| GGAACAGCUCUUUUGUGCUTT against Rin2 | inactive: 0.366 |
| GGUUUUUCUUCAUCUUAUCTT against Hspb8 | inactive: -0.456 |
| CGAGUGAAUUCGAUGGACCTT against Olfr945 | inactive: -1.03 |
| GGAAGAACUUUAAAAAUGCTT against Mic2l1 | inactive: 0.477 |
| GGAACAAAUCCUGGAACUGTT against 9530049C15Rik | inactive: 2.37 |
| CGAAUGAGAUUUUCACUCUTT against Tek | inactive: 0.678 |
| GCGGUUAUCUGCAUAUAGATT against Elys | inactive: -1.56 |
| GGACUGGAUUCAAACAAAATT against Lrrc1 | inactive: 1.12 |

An excerpt of the results above:

| Sequence | z-score |
| --- | --- |
| GGAUUGUGCAGAGCAUCUGTT against Card14 | inactive: -1.28 |
| CGGAAUUUUGCCUUCAUGATT against 2010002H18Rik | inactive: -0.773 |
| GGACAAAUGACUGGUACCCTT against Gorasp2 | inactive: 0.358 |
| CCUGUUCUGUUAUCAACGGTT against Plxdc1 | inactive: 1.82 |
| GAUGUACGAUCUGGUGGUGTT against Exosc6 | inactive: 0.00764 |

(continued)

| Sequence | z-score |
| --- | --- |
| CCUCAGAAUUCGAAUGAACTT against C130052G03Rik | inactive: 0.63 |
| GGAAUCUAUCUGAUCACCATT against Olfr144 | inactive: -0.225 |
| GCCAGGUUAAGCACUACGUTT against 2310022B05Rik | inactive: 2.21 |
| GGAAGAGAAAGGCAAAAAGTT against E030049G20Rik | inactive: -2.71 |
| GCACCAAGGAACUUGUUUCTT against Trpv2 | inactive: -0.405 |
| UGCUUUUUUGCCUAGCCAATT against Gpr135 | inactive: 1.52 |
| GGAUUGUGGGAGAUAGAUATT against Psip1 | inactive: -0.838 |
| GCUCUUGAUGUUUAGAGUUTT against Usp17 | inactive: 0.553 |
| GGUUUUGGUGUUCUAUACCTT against AI450540 | inactive: 0.295 |
| GACCACCUGCUAAUGGGAGTT against Prp15 | inactive: 1.45 |
| GGCAAUAAUAAAGUCCAUCTT against D030041N04Rik | inactive: -0.349 |
| CGUAUUGGAAAGACUGCUUTT against Poldip3 | inactive: 1.5 |
| GCACAAAUCGAAUUGGCAUTT against Tgm3 | inactive: -0.0147 |
| CCACAUUGGAACAAAGAGUTT against Lctl | inactive: 0.0203 |
| GGACAGAAAAUGUGAAAAGTT against Mdfi | inactive: 0.0159 |
| CCACAACAACAGGAGUACUTT against Nedd4l | inactive: 0.00777 |
| GGAAAGGAAAUCAAGGAUUTT against Gngt2 | inactive: -0.292 |
| GCCCUGCUUCAUAUGGAAUTT against Elf2 | inactive: 2.09 |
| GCUUGACGAACAGGUACUGTT against Palm2 | inactive: -0.0991 |
| GGGCAUGCAAUGUUCAUGCTT against Rho | inactive: -1.33 |
| GGGCCAUAAGAUCUGUACUTT against Ccl24 | inactive: -0.00359 |
| GGGAAUCUUCUUUCAGACCTT against C330003B14Rik | inactive: 1.19 |
| GGAGUUUUACGGACUGCUGTT against Pard6b | inactive: -0.748 |
| CCGUCUGGCCAGUGAAAUUTT against 1700019D03Rik | inactive: -0.121 |
| GGUUGCUUCCUCUUAAUUUTT against Eda | inactive: 1.44 |
| CGUGCAAGCAGUGAUUUUGTT against Smpx | inactive: 1.32 |
